In article PMC12084343 one finds binding data, which are given here for one substance.

These are yes or no findings as the source states them, for the method shown. In cells and extracts the contact can be indirect. A yes stands for co-enrichment or nearness to the bait. Other partners may have been found.

The assay has as its target T1, Cyclin A (Drosophila) (UniProt P14785).
T1 sequence: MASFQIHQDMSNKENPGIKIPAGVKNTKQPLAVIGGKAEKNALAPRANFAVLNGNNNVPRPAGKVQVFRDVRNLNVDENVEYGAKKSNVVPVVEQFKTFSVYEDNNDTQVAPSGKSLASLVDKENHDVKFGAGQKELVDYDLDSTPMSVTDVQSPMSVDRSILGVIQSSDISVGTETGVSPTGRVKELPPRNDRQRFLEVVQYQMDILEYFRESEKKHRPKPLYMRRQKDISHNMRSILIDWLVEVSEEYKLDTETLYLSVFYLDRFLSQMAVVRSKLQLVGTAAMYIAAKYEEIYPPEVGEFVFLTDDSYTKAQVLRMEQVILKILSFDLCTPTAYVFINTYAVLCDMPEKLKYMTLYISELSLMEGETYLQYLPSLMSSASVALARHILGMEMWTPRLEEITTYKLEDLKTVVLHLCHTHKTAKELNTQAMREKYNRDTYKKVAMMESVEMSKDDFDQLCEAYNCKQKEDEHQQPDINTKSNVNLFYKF
Put plainly: affinity purification with mass spectrometry; immunoprecipitates from S2 cells expressing Meru^WT or Meru^RxL in the presence of Cdk1 and CycA; S-Trap digest, Orbitrap Eclipse, MaxQuant; duplicate samples.

For the substance “Meru (full-length, wild-type) (Drosophila)”, the binding entry is on record as “binds”.
